Data reported in patent publication US20100150950A1, “HUMAN ANTIBODIES THAT BIND CD70 AND USES THEREOF” (Medarex, Inc., priority 2006, published 2010).
No constants are given. Whether binding was seen depends on the method and setting. Some binding calls cover weakened binding; strength is not graded here. Where a sequence is shown, tags or fusion partners need not be part of it.

T1: recombinant human CD70 fused with a dual myc-His tag (human) (UniProt P32970)
T1 sequence: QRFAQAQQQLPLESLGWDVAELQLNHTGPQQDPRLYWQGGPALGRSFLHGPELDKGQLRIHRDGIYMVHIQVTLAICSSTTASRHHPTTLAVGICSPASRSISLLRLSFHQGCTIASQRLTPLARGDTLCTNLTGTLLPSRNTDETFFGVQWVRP


Legend:
[1] = molecular target: T1, recombinant human CD70 fused with a dual myc-His tag (human); experiment: ELISA, plate coated with recombinant myc-tagged CD70, antibody from 1 µg/ml in 1:2 dilutions
[2] = molecular target: T1, recombinant human CD70 fused with a dual myc-His tag (human); experiment: ELISA on plate-coated recombinant myc-tagged CD70, anti-human IgG-HRP detection
[3] = molecular target: T1, recombinant human CD70 fused with a dual myc-His tag (human); experiment: blocking ELISA: antibody pre-mixed with CD70-myc-his, binding to captured CD27-Fc-his detected with anti-myc-HRP; blocked ligand CD27

Row | binding [1] | binding [2] | binding [3] | Binder
1 | binds | binds | – | anti-CD70 human monoclonal antibody 10B4 (antibody, V domains shown, Human IgG from hybridoma) VH: QIQLVESGGGVVQPGRSLRLSCAASGFTFGYYAMHWVRQAPGKGLEWVAVISYDGSIKYYADSVKGRFTISRDNSKNTLYLQMNSLRAEDTAVYYCAREGPYSNYLDYWGQGTLVTVSS VL: AIQLTQSPSSLSASVGDRVTITCRASQGISSALAWYQQKPGKAPKFLIYDASSLESGVPSRFSGSGSGTDFTLTISSLQPEDFATYYCQQFNSYPFTFGPGTKVDIK
2 | binds | binds | binds | anti-CD70 human monoclonal antibody 8B5 (antibody, V domains shown, Human IgG from hybridoma) VH: QVQLVESGGGVVQPGRSLRLSCATSGFTFSDYGMHWVRQAPGKGLEWVAVIWYDGSNKYYADSVKGRFTISRDNSKKTLSLQMNSLRAEDTAVYYCARDSIMVRGDYWGQGTLVTVSS VL: DIQMTQSPSSLSASVGDRVTITCRASQGISSWLAWYQQKPEKAPKSLIYAASSLQSGVPSRFSGSGSGTDFTLTISSLQPEDFATYYCQQYNSYPLTFGGGTKVEIK
